The record followed here is the supplement of paper PMC4635364.

The structures appear in SMILES notation. Counter-ions that a name gives are not always drawn. Some of the results follow. This data set is noisy: repeats of one test often differ as much as different tests do.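 Cells: ReNCell VM human fetal ventral-midbrain neural progenitors, differentiated mitogen-free. Blinded raters compared doublecortin-stained (early neurons) or tyrosine hydroxylase-stained (dopaminergic neurons) images with untreated wells, where 0 means no change. After repeats and both raters were averaged, compounds scoring 2 or above became hits for retesting.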

Test [1] relates to ReNCell VM. In words: neuronal differentiation score (DCX+ cell fraction vs untreated, manual image score) (score (-3 to 3)); higher = more neuronal differentiation. As to conditions: 2 uM, 2 weeks.
In test [2] the test system is ReNCell VM. Kind of test: dopaminergic neuron differentiation score (TH+ cell fraction vs untreated, manual image score) (score (0 to 3)); higher = more TH+ dopaminergic neuron differentiation. As to conditions: 2 uM, 4 weeks, BDNF 10 ng/ml + GDNF 10 ng/ml.

Regarding `CC(=O)O[C@H]1C[C@@H]2CC[C@@H]3[C@H](CC[C@@]4(C)[C@H]3C[C@H]([N+]3(C)CCCCC3)[C@@H]4OC(C)=O)[C@@]2(C)C[C@@H]1[N+]1(C)CCCCC1` [Pancuronium bromide], the neuronal differentiation score with ReNCell VM [1] (library: LOPAC) and in the test with ReNCell VM [1] (library: Prestwick) was inactive: 0 in each case. Further, the “dopaminergic neuron differentiation score” value in the test with ReNCell VM [2] (library: LOPAC) and with ReNCell VM [2] (library: Prestwick) was inactive: 0 throughout.
Regarding `C[C@]12CCC(=O)C=C1C=C[C@@H]1[C@@H]2CC[C@@]2(C)[C@H]1CC[C@@]2(O)CCC(=O)O` [Canrenoic acid potassium salt], the neuronal differentiation score with ReNCell VM [1] (library: Prestwick) was inactive: 0. In the test on ReNCell VM [2] (library: Prestwick), the “dopaminergic neuron differentiation score” value is inactive: 0.
On to `CCn1cc(C(=O)O)c(=O)c2cc3c(cc21)OCO3` [Oxolinic acid], for which the neuronal differentiation score in the test on ReNCell VM [1] (library: LOPAC) and with ReNCell VM [1] (library: Prestwick) was inactive: 0 each time. Further, the “dopaminergic neuron differentiation score” value in the test on ReNCell VM [2] (library: LOPAC) and with ReNCell VM [2] (library: Prestwick) was inactive: 0 in each case.
As to `CCOc1cncc(/C=C/CCNC)c1` [TC 2559 difumarate], the neuronal differentiation score with ReNCell VM [1] (library: Tocriscreen) was inactive: 0. Further, the “dopaminergic neuron differentiation score” value in the test on ReNCell VM [2] (library: Tocriscreen) was inactive: 0.
Regarding `NC(=O)CN1CCCC1=O`, the neuronal differentiation score in the test with ReNCell VM [1] (library: Spectrum) is inactive: 0. Besides, the “dopaminergic neuron differentiation score” value with ReNCell VM [2] (library: Spectrum) was inactive: 0.
Regarding `NC(=O)CN1CCCC1=O` [Piracetam], the neuronal differentiation score in the test on ReNCell VM [1] (library: LOPAC) is inactive: 1; in the test on ReNCell VM [1] (library: Prestwick), inactive: 0. Besides, the “dopaminergic neuron differentiation score” value with ReNCell VM [2] (library: LOPAC) and with ReNCell VM [2] (library: Prestwick) was inactive: 0 each time.
On to `C[C@@H]1O[C@@H](O[C@H]2C[C@@H](O)[C@]3(CO)[C@H]4[C@H](O)C[C@]5(C)[C@@H](C6=CC(=O)OC6)CC[C@]5(O)[C@@H]4CC[C@]3(O)C2)[C@H](O)[C@H](O)[C@H]1O` [Strophantine octahydrate], for which, in the test with ReNCell VM [1] (library: Phytochemical), the neuronal differentiation score is inactive: 0. The “dopaminergic neuron differentiation score” value in the test on ReNCell VM [2] (library: Phytochemical) is inactive: 0.
With `N.N.[Cl][Pt][Cl]` [Cisplatin], the neuronal differentiation score in the test on ReNCell VM [1] (library: LOPAC) and in the test with ReNCell VM [1] (library: Tocriscreen) was inactive: 0 throughout. Moreover, the “dopaminergic neuron differentiation score” value in the test with ReNCell VM [2] (library: LOPAC) and in the test on ReNCell VM [2] (library: Tocriscreen) was inactive: 0 each time.
As to `CC[C@@]1([C@@H]2O[C@@H]([C@H]3O[C@@](O)(CO)[C@H](C)C[C@@H]3C)C[C@@H]2C)CC[C@H]([C@]2(C)CC[C@]3(C[C@H](O)[C@@H](C)[C@@H]([C@@H](C)[C@@H](OC)[C@H](C)C(=O)O)O3)O2)O1` [Monensin sodium salt], the neuronal differentiation score in the test on ReNCell VM [1] (library: Phytochemical) and in the test with ReNCell VM [1] (library: Prestwick) was inactive: 0 each time. Further, the “dopaminergic neuron differentiation score” value in the test on ReNCell VM [2] (library: Phytochemical) and in the test with ReNCell VM [2] (library: Prestwick) was inactive: 0 each time.
Consider `CC[C@@]1(O)C(=O)OCc2c1cc1n(c2=O)Cc2cc3ccccc3nc2-1` [(S)-(+)-Camptothecin], for which, in the test on ReNCell VM [1] (library: LOPAC), the neuronal differentiation score was inactive: 0. Also, the “dopaminergic neuron differentiation score” value with ReNCell VM [2] (library: LOPAC) is inactive: 0.
With `COc1ccc2c(c[n+](C)c3c4cc5c(cc4ccc23)OCO5)c1OC` [Chelerythrine chloride], the neuronal differentiation score with ReNCell VM [1] (library: LOPAC) was inactive: 0. Further, the “dopaminergic neuron differentiation score” value with ReNCell VM [2] (library: LOPAC) is inactive: 0.
`CC(NC(C)(C)C)C(=O)c1cccc(Cl)c1` (configuration not stated) [Bupropion hydrochloride]: the neuronal differentiation score with ReNCell VM [1] (library: LOPAC) was inactive: -1; in the test on ReNCell VM [1] (library: Prestwick) it was inactive: 0. Moreover, the “dopaminergic neuron differentiation score” value in the test with ReNCell VM [2] (library: LOPAC) and in the test with ReNCell VM [2] (library: Prestwick) was inactive: 0 throughout.
`CC[C@H]1CN2CC[C@H]1C[C@@H]2[C@@H](O)c1ccnc2ccc(OC)cc12` [Hydroquinidine HCl]: the neuronal differentiation score in the test on ReNCell VM [1] (library: Phytochemical) was inactive: -3. Also, the “dopaminergic neuron differentiation score” value in the test with ReNCell VM [2] (library: Phytochemical) was inactive: 0.
As for `CCCCCCC(C)(C)c1ccc([C@@H]2C[C@H](O)CC[C@H]2CCCO)c(O)c1`, in the test on ReNCell VM [1] (library: LOPAC), the neuronal differentiation score is inactive: 0. Further, the “dopaminergic neuron differentiation score” value in the test with ReNCell VM [2] (library: LOPAC) was inactive: 0.
Take `CC(C)N(CCC(C(N)=O)(c1ccccc1)c1ccccn1)C(C)C` (configuration not stated) [Disopyramide]: the values for the neuronal differentiation score in the test on ReNCell VM [1] (library: LOPAC) and in the test on ReNCell VM [1] (library: Prestwick) were inactive: -1 and inactive: 0, respectively. For the same molecule, the “dopaminergic neuron differentiation score” value with ReNCell VM [2] (library: LOPAC) and in the test on ReNCell VM [2] (library: Prestwick) was inactive: 0 each time.
Consider `C=C(C)c1cc2cc(C(C)=O)c(O)cc2o1` [euparin], for which the neuronal differentiation score with ReNCell VM [1] (library: Natural) was inactive: 0. The “dopaminergic neuron differentiation score” value with ReNCell VM [2] (library: Natural) is inactive: 0.
`Clc1ccc(N2C[C@H]3CC[C@@H](C2)N3)nn1`: in the test with ReNCell VM [1] (library: LOPAC), the neuronal differentiation score is inactive: 0. Further, the “dopaminergic neuron differentiation score” value with ReNCell VM [2] (library: LOPAC) is inactive: 0.
For the molecule `c1ccc2nc(N3CCNCC3)ccc2c1` [Quipazine dimaleate], the neuronal differentiation score in the test with ReNCell VM [1] (library: LOPAC) and in the test with ReNCell VM [1] (library: Tocriscreen) was inactive: 0 each time. Besides, the “dopaminergic neuron differentiation score” value with ReNCell VM [2] (library: LOPAC) and in the test with ReNCell VM [2] (library: Tocriscreen) was inactive: 0 throughout.
For the molecule `C=C(C)[C@@H]1[C@H]2OC(=O)[C@@H]1[C@]1(O)C[C@H]3OC34C(=O)O[C@H]2[C@@]41C.CC(C)(O)[C@@H]1[C@H]2OC(=O)[C@@H]1[C@]1(O)C[C@H]3OC34C(=O)O[C@H]2[C@@]41C` (some centres not stated) [Picrotoxin], the neuronal differentiation score in the test on ReNCell VM [1] (library: LOPAC) is inactive: 0. Also, the “dopaminergic neuron differentiation score” value in the test on ReNCell VM [2] (library: LOPAC) is inactive: 0.
Consider `N=C(N)NN` [Aminoguanidine hemisulfate], for which the neuronal differentiation score in the test on ReNCell VM [1] (library: LOPAC) was inactive: 0. The “dopaminergic neuron differentiation score” value in the test on ReNCell VM [2] (library: LOPAC) is inactive: 0.
With `C#C[C@]1(O)CC[C@H]2[C@@H]3CCC4=CC(=O)CC[C@]4(C)[C@H]3CC[C@@]21C`, the neuronal differentiation score in the test with ReNCell VM [1] (library: Spectrum) was inactive: 0. For the same molecule, the “dopaminergic neuron differentiation score” value in the test with ReNCell VM [2] (library: Spectrum) is inactive: 0.
As to `N#Cc1c(Cl)c(Cl)c(Cl)c(C#N)c1Cl`, in the test with ReNCell VM [1] (library: Spectrum), the neuronal differentiation score was inactive: 0. In addition, the “dopaminergic neuron differentiation score” value with ReNCell VM [2] (library: Spectrum) is inactive: 0.
Regarding `CN[C@@H](C)[C@H](O)c1ccccc1` [Ephedrine HCl], in the test on ReNCell VM [1] (library: Phytochemical), the neuronal differentiation score is inactive: 0. Besides, the “dopaminergic neuron differentiation score” value in the test with ReNCell VM [2] (library: Phytochemical) is inactive: 0.
